Our source for the binding values is paper PMC10602610.

Experiment [1] addresses T1, VITAMIN C …2 (VTC2), bait fusion VTC2-BD (Arabidopsis thaliana) (UniProt Q8RWE8).
T1 sequence: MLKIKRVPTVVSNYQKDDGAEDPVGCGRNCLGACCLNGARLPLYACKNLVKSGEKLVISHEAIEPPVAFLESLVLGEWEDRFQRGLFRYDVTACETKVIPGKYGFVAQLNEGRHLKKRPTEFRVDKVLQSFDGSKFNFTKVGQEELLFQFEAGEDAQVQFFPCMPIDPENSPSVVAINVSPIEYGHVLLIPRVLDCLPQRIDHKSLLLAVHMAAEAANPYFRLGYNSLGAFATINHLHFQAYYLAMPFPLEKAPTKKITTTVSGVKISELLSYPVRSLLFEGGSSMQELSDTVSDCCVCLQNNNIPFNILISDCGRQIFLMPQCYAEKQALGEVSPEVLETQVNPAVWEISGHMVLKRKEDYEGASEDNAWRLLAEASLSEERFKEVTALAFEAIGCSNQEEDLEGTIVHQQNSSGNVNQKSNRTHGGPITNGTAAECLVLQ
Put plainly: two-hybrid; targeted Y2H in S. cerevisiae Y2HGold; VTC2-BD as bait, PLPB-AD as prey; growth on SD-Trp-Leu-His-Ade with Aureobasidin A (0.2 µg/mL) and X-α-Gal, 30°C, 5 d.

Experiment [2] has as its target T2, VITAMIN C …2 (VTC2), BiFC fusion (Arabidopsis thaliana) (UniProt Q8RWE8).
T2 sequence: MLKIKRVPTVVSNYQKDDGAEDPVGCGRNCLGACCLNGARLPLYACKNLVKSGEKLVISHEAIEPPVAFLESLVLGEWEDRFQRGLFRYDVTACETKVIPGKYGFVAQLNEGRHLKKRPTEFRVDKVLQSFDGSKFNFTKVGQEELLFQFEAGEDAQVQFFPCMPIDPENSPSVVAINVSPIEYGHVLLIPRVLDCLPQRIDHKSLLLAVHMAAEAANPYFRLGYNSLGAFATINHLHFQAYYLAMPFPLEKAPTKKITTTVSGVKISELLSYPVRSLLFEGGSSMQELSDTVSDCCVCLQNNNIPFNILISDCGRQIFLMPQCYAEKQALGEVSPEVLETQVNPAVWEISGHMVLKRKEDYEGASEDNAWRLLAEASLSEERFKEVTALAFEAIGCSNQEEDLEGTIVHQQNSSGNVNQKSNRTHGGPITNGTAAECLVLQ
Put plainly: split reporter; 2in1 BiFC (pBiFCt-2in1-NC) in agroinfiltrated N. benthamiana leaves, YFP signal by confocal microscopy, 35S::RFP as control of transformation; leaves under normal growth conditions, or exposed to dark or high blue light (300 µmol m^-2 s^-1), YFP/RFP ratio in nuclei stronger in the dark.

These are yes or no findings as the source states them, for the method shown. For part of these data: In cells and extracts the contact can be indirect. Some binding calls cover weakened binding; strength is not graded here. Sequences can lack the tags named with a protein.

B1: PAS/LOV PROTEIN B (PLPB), prey fusion PLPB-AD (protein, UniProt O64511-1 1-399)
chain: MSLTKSSESVFTEEEEEDSFSGRYTLWIKEALEELPHNFTITDPFISGHPIVFASLGFLKMTGYSREEVIGRNGKVFQGPKTNRRSIMEIREAIREERSVQVSLLNYRKSGSPFWMLFHMCPVFGKDDGKVTNFVAVQVPISGREHHRKKLRNVGDLSSDTSPTFGSCRREVCFGNFVCQDRALPVECDDDEQGLEDWEQCEASESEKLKATEAINNVLSILVHYSELSGRLVCGKRYCLRGVDCLSSSLVISLGRIKQSFVLTNPCLPDMPIIYASDAFLTLTGYKRQEVLGQNCRFLSGVDTDSSVLYEMKECILKGQSCTVQILNYSNRKDKSSFWNLLHISPVRNASGKTAYFVGVQVEASCRNTEIKELRPETRQLSVVGAVRVAVRSSLMVTC
Consider B1, for which the binding entry in experiment [1] is “binds”.

B2: PAS/LOV PROTEIN B (PLPB), BiFC fusion (protein, UniProt O64511-1 1-399)
chain: MSLTKSSESVFTEEEEEDSFSGRYTLWIKEALEELPHNFTITDPFISGHPIVFASLGFLKMTGYSREEVIGRNGKVFQGPKTNRRSIMEIREAIREERSVQVSLLNYRKSGSPFWMLFHMCPVFGKDDGKVTNFVAVQVPISGREHHRKKLRNVGDLSSDTSPTFGSCRREVCFGNFVCQDRALPVECDDDEQGLEDWEQCEASESEKLKATEAINNVLSILVHYSELSGRLVCGKRYCLRGVDCLSSSLVISLGRIKQSFVLTNPCLPDMPIIYASDAFLTLTGYKRQEVLGQNCRFLSGVDTDSSVLYEMKECILKGQSCTVQILNYSNRKDKSSFWNLLHISPVRNASGKTAYFVGVQVEASCRNTEIKELRPETRQLSVVGAVRVAVRSSLMVTC
For B2, in experiment [2], the binding result is listed as “binds”.

B3: PAS/LOV PROTEIN A (PLPA), BiFC fusion (protein, UniProt O64511-2 1-397)
chain: MSLTKSSESVFTEEEEEDSFSGRYTLWIKEALEELPHNFTITDPFISGHPIVFASLGFLKMTGYSREEVIGRNGKVFQGPKTNRRSIMEIREAIREERSVQVSLLNYRKSGSPFWMLFHMCPVFGKDDGKVTNFVAVQVPISGREHHRKKLRNVGDLSSDTSPTFGSCRREVCFGNFVCQDRALPVECDDDEQGLEDWEQCEASESEKLKATEAINNVLSILVHYSELSGRLVCGKRYCLRGVDCLSSSLVISLGRIKQSFVLTNPCLPDMPIIYASDAFLTLTGYKRQEVLGQNCRFLSGVDTDSSVLYEMKECILKGQSCTVQILNYRKDKSSFWNLLHISPVRNASGKTAYFVGVQVEASCRNTEIKELRPETRQLSVVGAVRVAVRSSLMVTC
For the molecule B3, in experiment [2], the binding result was “binds”.
